Some of these results come from one statement about several compounds together. At least one structure is not confirmed: it was looked up by name or label, or the drawing left a doubt.
Columns and labels:
Type in all cases: in vivo
[1] = tested on: larvae of the mustard beetle (Phaedon cochleariae); assay: Phaedon test (spray treatment); details: application rate 100 g/ba; Chinese cabbage leaf discs sprayed
[2] = tested on: larvae of the armyworm (Spodoptera frugiperda); assay: Spodoptera frugiperda test (spray treatment); details: 100 g/ha; maize leaf discs sprayed
[3] = tested on: green peach aphid (Myzus persicae); assay: Myzus test (spray treatment); details: 100 g/ha; infested Chinese cabbage leaf discs sprayed

Row | SMILES | effect in % (kill of beetle larvae) [1] [%] | effect in % (kill of caterpillars) [2] [%] | effect in % (kill of aphids) [3] [%]
1 | Cc1cc(Cl)cc(C(=O)NC2CC2)c1NC(=O)c1cc(Cn2cnc(C(F)(F)C(F)(F)F)n2)nn1-c1ncccc1Cl [I-1-331] | ≥ 80 | ≥ 80 | ≥ 80
2 | CSC[C@H](C)NC(=O)c1cccc(C)c1NC(=O)c1cc(Cn2nc(C(F)(F)F)nc2C(F)(F)F)nn1-c1ncccc1Cl [I-1-84] | ≥ 80 | ≥ 80 | ≥ 80
3 | Cc1cc(Cl)cc(C(=O)NC(C)C)c1NC(=O)c1cc(Cn2nc(C(F)(F)F)n(C)c2=O)nn1-c1ncccc1Cl [I-1-117] | – | ≥ 80 | ≥ 80
4 | CNC(=O)c1cc(Br)cc(C)c1NC(=O)c1cc(Cn2ccc(C(F)(F)F)n2)nn1-c1ncccc1Cl [I-1-80] | ≥ 80 | ≥ 80 | ≥ 80
5 | Cc1cc(Cl)cc(C(=O)NCC#N)c1NC(=O)c1cc(Cn2cnc(C(F)(F)C(F)(F)F)n2)nn1-c1ncccc1Cl [I-1-332] | ≥ 80 | ≥ 80 | ≥ 80
6 | Cc1cc(C#N)cc(C(N)=O)c1NC(=O)c1cc(Cn2cc(Cl)c(C(F)(F)C(F)(F)F)n2)nn1-c1ncccc1Cl [I-1-174] | ≥ 80 | ≥ 80 | ≥ 80
7 | Cc1cc(Br)cc(C(N)=O)c1NC(=O)c1cc(Cn2cc(Br)c(C(F)(F)F)n2)nn1-c1ncccc1Cl [I-1-100] | ≥ 80 | ≥ 80 | ≥ 80
8 | CNC(=O)c1cc(Br)cc(C)c1NC(=O)c1cc(Cn2nc(C(F)(F)F)nc2C(F)(F)F)nn1-c1ncccc1Cl [I-1-36] | ≥ 80 | – | ≥ 80
9 | Cc1cc(Cl)cc(C(N)=O)c1NC(=O)c1cc(Cn2cnc(C(F)(F)C(F)(F)F)n2)nn1-c1ncccc1Cl [I-1-330] | ≥ 80 | ≥ 80 | ≥ 80
10 | CNC(=O)c1cc(Cl)cc(C)c1NC(=O)c1cc(Cn2nc(C(F)(F)F)n(C)c2=O)nn1-c1ncccc1Cl [I-1-116] | – | ≥ 80 | ≥ 80
11 | CSC[C@H](C)NC(=O)c1cc(Cl)cc(C)c1NC(=O)c1cc(Cn2cc(Br)c(C(F)(F)F)n2)nn1-c1ncccc1Cl [I-1-130] | ≥ 80 | ≥ 80 | ≥ 80
12 | Cc1cc(Br)cc(C(=O)NCC#N)c1NC(=O)c1cc(Cn2cc(Br)c(C(F)(F)F)n2)nn1-c1ncccc1Cl [I-1-97] | ≥ 80 | ≥ 80 | ≥ 80
13 | Cc1cc(Cl)cc(C(=O)N[C@@H](C)C[S+](C)[O-])c1NC(=O)c1cc(Cn2cc(Br)c(C(F)(F)F)n2)nn1-c1ncccc1Cl (some centres unmarked) [I-1-138] | ≥ 80 | ≥ 80 | ≥ 80
14 | Cc1cc(C#N)cc(C(=O)NCC#N)c1NC(=O)c1cc(Cn2nc(C(F)(F)F)nc2C(F)(F)F)nn1-c1ncccc1Cl [I-1-180] | ≥ 80 | ≥ 80 | ≥ 80
15 | CNC(=O)c1cc(C#N)cc(C)c1NC(=O)c1cc(Cn2nc(C(F)(F)F)nc2C(F)(F)F)nn1-c1ncccc1Cl [I-1-176] | ≥ 80 | ≥ 80 | ≥ 80
16 | CNC(=O)c1cc(C#N)cc(C)c1NC(=O)c1cc(Cn2nc(C(F)(F)F)cc2C(F)(F)F)nn1-c1ncccc1Cl [I-1-186] | ≥ 80 | ≥ 80 | ≥ 80
17 | Cc1cc(Cl)cc(C(=O)NC2CC2CO)c1NC(=O)c1cc(Cn2cc(Cl)c(C(F)(F)C(F)(F)F)n2)nn1-c1ncccc1Cl (centres unmarked) [I-1-207] | ≥ 80 | ≥ 80 | ≥ 80
18 | Cc1cc(F)cc(C(=O)NC2CC2CO)c1NC(=O)c1cc(Cn2cc(Cl)c(C(F)(F)C(F)(F)F)n2)nn1-c1ncccc1Cl (centres unmarked) [I-1-203] | ≥ 80 | ≥ 80 | ≥ 80
19 | Cc1cc(Br)cc(C(=O)NC(C)(C)CS(C)(=O)=O)c1NC(=O)c1cc(Cn2cc(Br)c(C(F)(F)F)n2)nn1-c1ncccc1Cl [I-1-121] | ≥ 80 | ≥ 80 | ≥ 80
20 | Cc1cc(Cl)cc(C(=O)NC(C)(C)C[S+](C)[O-])c1NC(=O)c1cc(Cn2cc(Br)c(C(F)(F)F)n2)nn1-c1ncccc1Cl (centres unmarked) [I-1-128] | ≥ 80 | ≥ 80 | ≥ 80
21 | CC(C)NC(=O)c1cc(Cl)cc(Cl)c1NC(=O)c1cc(Cn2cnc(C(F)(F)C(F)(F)F)n2)nn1-c1ncccc1Cl [I-1-327] | ≥ 80 | ≥ 80 | ≥ 80
22 | CSCC(C)NC(=O)c1cc(Br)cc(C)c1NC(=O)c1cc(Cn2cc(Br)c(C(F)(F)F)n2)nn1-c1ncccc1Cl (centres unmarked) [I-1-99] | ≥ 80 | ≥ 80 | ≥ 80

Row | SMILES | effect in % (kill of beetle larvae) [1] [%] | effect in % (kill of caterpillars) [2] [%] | effect in % (kill of aphids) [3] [%]
23 | Cc1cc(I)cc(C(N)=O)c1NC(=O)c1cc(Cn2nc(C(F)(F)F)nc2C(F)(F)F)nn1-c1ncccc1Cl [I-1-272] | ≥ 80 | ≥ 80 | ≥ 80
24 | Cc1cc(C#N)cc(C(N)=O)c1NC(=O)c1cc(Cn2ccc(C(F)(F)F)n2)nn1-c1ncccc1Cl [I-1-184] | ≥ 80 | ≥ 80 | ≥ 80
25 | CNC(=O)c1cc(Cl)cc(C)c1NC(=O)c1cc(Cn2nc(C(F)(F)F)n(C3CC3)c2=O)nn1-c1ncccc1Cl [I-1-127] | – | ≥ 80 | ≥ 80
26 | CSCC(C)NC(=O)c1cc(F)cc(C)c1NC(=O)c1cc(Cn2cc(Cl)c(C(F)(F)C(F)(F)F)n2)nn1-c1ncccc1Cl (centres unmarked) [I-1-195] | ≥ 80 | ≥ 80 | –
27 | Cc1cc(Cl)cc(C(=O)NC(C)C)c1NC(=O)c1cc(Cn2nnn(-c3c(C)cccc3Cl)c2=O)nn1-c1ncccc1Cl [I-1-51] | ≥ 80 | ≥ 80 | –
28 | Cc1cc(I)cc(C(=O)NC(C)C)c1NC(=O)c1cc(Cn2ccc(C(F)(F)F)n2)nn1-c1ncccc1Cl [I-1-248] | ≥ 80 | ≥ 80 | –
29 | Cc1cc(C#N)cc(C(=O)NC2CC2)c1NC(=O)c1cc(Cn2nc(C(F)(F)F)cc2C(F)(F)F)nn1-c1ncccc1Cl [I-1-188] | ≥ 80 | ≥ 80 | –
30 | CNC(=O)c1cc(Br)cc(C)c1NC(=O)c1cc(Cn2cc(Cl)c(C(F)(F)C(F)(F)F)n2)nn1-c1ncccc1Cl [I-1-70] | ≥ 80 | ≥ 80 | –
31 | Cc1cc(I)cc(C(=O)NCC#N)c1NC(=O)c1cc(Cn2nc(C(F)(F)F)cc2C(F)(F)F)nn1-c1ncccc1Cl [I-1-241] | ≥ 80 | ≥ 80 | –
32 | Cc1cc(Cl)cc(C(=O)NC(C)C)c1NC(=O)c1cc(Cn2nnc(-c3ccccc3)n2)nn1-c1ncccc1Cl [I-1-166] | ≥ 80 | ≥ 80 | –
33 | CNC(=O)c1cc(Cl)cc(C)c1NC(=O)c1cc(Cn2nc(C(F)(F)F)n(-c3ccccc3)c2=O)nn1-c1ncccc1Cl [I-1-118] | – | ≥ 80 | ≥ 80
34 | CNC(=O)c1cc(I)cc(C)c1NC(=O)c1cc(Cn2ccc(C(F)(F)F)n2)nn1-c1ncccc1Cl [I-1-247] | ≥ 80 | ≥ 80 | –
35 | Cc1cc(Cl)cc(C(=O)NC(C)C)c1NC(=O)c1cc(Cn2nc(C(F)(F)F)n(C3CC3)c2=O)nn1-c1ncccc1Cl [I-1-126] | – | ≥ 80 | ≥ 80
36 | Cc1cc(I)cc(C(=O)NC2CC2)c1NC(=O)c1cc(Cn2cc(Cl)c(C(F)(F)C(F)(F)F)n2)nn1-c1ncccc1Cl [I-1-276] | ≥ 80 | ≥ 80 | –
37 | NC(=O)c1cc(Cl)cc(Cl)c1NC(=O)c1cc(Cn2nc(C(F)(F)F)nc2C(F)(F)F)nn1-c1ncccc1Cl [I-1-298] | ≥ 80 | ≥ 80 | –
38 | Cc1cc(I)cc(C(=O)NC(C)(C)C)c1NC(=O)c1cc(Cn2cc(Cl)c(C(F)(F)C(F)(F)F)n2)nn1-c1ncccc1Cl [I-1-289] | ≥ 80 | ≥ 80 | –
39 | Cc1cc(Cl)cc(C(N)=O)c1NC(=O)c1cc(Cn2cnc(C(F)(F)C(F)(F)F)n2)nn1-c1ncccc1Cl [I-1-343] | ≥ 80 | ≥ 80 | –
40 | CNC(=O)c1cc(F)cc(C)c1NC(=O)c1cc(Cn2nc(C(F)(F)F)nc2C(F)(F)F)nn1-c1ncccc1Cl [I-1-219] | ≥ 80 | ≥ 80 | –
41 | N#CCNC(=O)c1cc(Cl)cc(Cl)c1NC(=O)c1cc(Cn2cc(Cl)c(C(F)(F)C(F)(F)F)n2)nn1-c1ncccc1Cl [I-1-310] | ≥ 80 | ≥ 80 | –
42 | CNC(=O)c1cc(Cl)cc(C)c1NC(=O)c1cc(Cn2ccc(Br)n2)nn1-c1ncccc1Cl [I-1-125] | ≥ 80 | ≥ 80 | –
43 | Cc1cc(I)cc(C(=O)NCC2CC2)c1NC(=O)c1cc(Cn2nc(C(F)(F)F)cc2C(F)(F)F)nn1-c1ncccc1Cl [I-1-235] | ≥ 80 | ≥ 80 | –
